Test [1] concerns the target SP-FLAG-μ-OR-RlucII (human) (UniProt P35372). Nature of the test: FRET or BRET; BRET^2 in living parental HEK293A cells, μ-OR-RlucII donor and GFP^2-β-arrestin1 or -2 acceptor, 6 min stimulation with saturating DAMGO, fentanyl, loperamide or morphine, 37 °C, coelenterazine 400a.
The target is the same in test [2]. Kind of test: FRET or BRET; BRET^2 as a5 but after 60 min stimulation. For orientation: In BRET a luciferase serves as donor, and the signal depends on an acceptor being close.
In test [3] the target is μ-OR-EYFP (human) (UniProt P35372). Nature of the test: FRET or BRET; BRET^1 as a1 but after 60 min stimulation with saturating agonist concentrations.
Test [4] shares this target. Nature of the test: FRET or BRET; BRET^1 in living parental HEK293A cells (also ΔGRK3 cells), β-arrestin2-RlucII donor and μ-OR-EYFP acceptor, real time, peak at 6-12 min after DAMGO, fentanyl, loperamide or morphine, 37 °C, HBSS with 1 mM CaCl2, 1 mM MgCl2, 20 mM HEPES, 0.01% Pluronic F-68, pH 7.4, coelenterazine h.

Amino acid sequences for entries named in this document (tags omitted). A change or cut given only in a name is not applied to a line headed by its entry.
UniProt P49407, whole entry: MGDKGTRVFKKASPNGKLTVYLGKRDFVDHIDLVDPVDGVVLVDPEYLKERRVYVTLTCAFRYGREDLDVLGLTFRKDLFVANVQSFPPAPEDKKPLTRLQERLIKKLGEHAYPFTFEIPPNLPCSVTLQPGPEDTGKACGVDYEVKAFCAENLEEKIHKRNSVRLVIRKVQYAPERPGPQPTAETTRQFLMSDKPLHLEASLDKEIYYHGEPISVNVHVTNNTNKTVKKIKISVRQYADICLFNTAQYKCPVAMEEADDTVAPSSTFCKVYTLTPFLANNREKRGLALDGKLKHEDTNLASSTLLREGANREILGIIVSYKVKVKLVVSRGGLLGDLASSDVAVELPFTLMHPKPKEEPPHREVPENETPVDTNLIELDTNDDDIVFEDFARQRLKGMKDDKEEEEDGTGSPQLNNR
UniProt P32121, whole entry: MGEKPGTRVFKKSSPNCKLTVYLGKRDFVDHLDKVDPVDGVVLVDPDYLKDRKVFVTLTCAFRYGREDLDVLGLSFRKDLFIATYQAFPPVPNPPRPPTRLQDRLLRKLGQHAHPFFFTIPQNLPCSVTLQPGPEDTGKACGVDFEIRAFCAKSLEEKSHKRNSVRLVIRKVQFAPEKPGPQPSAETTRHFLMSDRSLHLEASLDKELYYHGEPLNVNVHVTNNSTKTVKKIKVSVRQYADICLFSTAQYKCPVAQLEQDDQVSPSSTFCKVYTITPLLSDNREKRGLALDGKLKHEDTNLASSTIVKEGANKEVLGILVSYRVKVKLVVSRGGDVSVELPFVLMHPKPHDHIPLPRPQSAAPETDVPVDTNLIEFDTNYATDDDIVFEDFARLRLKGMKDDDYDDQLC

No constants are given. Whether binding was seen depends on the method and setting. In cells and extracts the contact can be indirect. Some binding calls cover weakened binding; strength is not graded here.

As for “GFP^2-β-arrestin1 (from UniProt P49407 1-418)”, the binding entry in test [1] is recorded as “binds”; in test [2], “binds weakly”.
Turning to “GFP^2-β-arrestin2 (from UniProt P32121 1-409)”, the binding entry in test [1] is listed as “binds”; in test [2] it was “binds weakly”.
For the substance “β-arrestin2-RlucII (from UniProt P32121 1-409)”, the binding result is reported as “binds weakly” with μ-OR-EYFP (human) [3] and “binds” with μ-OR-EYFP (human) [4].

For the origin of these results see publication PMC7567791 (Scientific Reports, 2020).
